Experimental data reported in US20100273676A1 (GENERAL HOSPITAL, published 2010).
These are yes or no findings as the source states them, for the method shown. For some of these results: Binding seen in cells or lysates may run through a third protein. Some results given as binding are weak or reduced against the parent protein; the word gives no strength. For some of these results: Tags and fused reporters may be left off the sequences shown.

Chains of the proteins cited; added tags and fusions are not shown. Lines headed by an entry give the natural chain unless they say otherwise; changes in a name come on top. Residues count along the entry.
UniProt Q96RN5, residues 5-78: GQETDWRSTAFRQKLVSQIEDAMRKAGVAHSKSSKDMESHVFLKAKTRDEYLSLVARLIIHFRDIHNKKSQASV
UniProt P19659: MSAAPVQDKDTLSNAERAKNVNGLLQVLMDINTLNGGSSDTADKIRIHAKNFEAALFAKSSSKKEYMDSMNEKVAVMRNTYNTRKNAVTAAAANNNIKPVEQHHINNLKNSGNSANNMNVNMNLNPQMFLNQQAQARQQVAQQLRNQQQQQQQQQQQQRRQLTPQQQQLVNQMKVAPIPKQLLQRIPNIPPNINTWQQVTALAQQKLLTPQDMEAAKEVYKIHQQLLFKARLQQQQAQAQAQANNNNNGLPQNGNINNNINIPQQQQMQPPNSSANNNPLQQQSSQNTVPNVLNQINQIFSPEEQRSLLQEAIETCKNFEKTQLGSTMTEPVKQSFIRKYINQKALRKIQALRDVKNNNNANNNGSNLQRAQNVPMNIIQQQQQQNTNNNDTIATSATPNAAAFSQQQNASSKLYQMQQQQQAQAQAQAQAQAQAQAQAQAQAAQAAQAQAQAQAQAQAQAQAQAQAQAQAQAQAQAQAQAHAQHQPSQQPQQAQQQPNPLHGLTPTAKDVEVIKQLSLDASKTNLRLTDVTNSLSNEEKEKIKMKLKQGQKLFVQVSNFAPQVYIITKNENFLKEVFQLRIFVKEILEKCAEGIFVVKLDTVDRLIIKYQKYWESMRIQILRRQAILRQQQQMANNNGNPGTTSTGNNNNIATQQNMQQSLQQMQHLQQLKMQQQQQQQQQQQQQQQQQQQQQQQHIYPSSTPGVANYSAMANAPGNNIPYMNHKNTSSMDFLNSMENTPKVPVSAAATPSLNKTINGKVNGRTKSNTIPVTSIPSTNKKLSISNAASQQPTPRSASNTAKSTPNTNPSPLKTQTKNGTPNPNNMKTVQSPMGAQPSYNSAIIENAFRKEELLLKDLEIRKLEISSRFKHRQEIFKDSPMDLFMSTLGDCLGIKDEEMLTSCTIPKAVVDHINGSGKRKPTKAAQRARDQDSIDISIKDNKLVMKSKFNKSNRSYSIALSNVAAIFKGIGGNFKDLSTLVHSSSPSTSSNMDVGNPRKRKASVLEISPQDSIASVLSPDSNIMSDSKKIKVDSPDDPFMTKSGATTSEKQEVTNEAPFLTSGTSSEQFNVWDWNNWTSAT
GST-Gal11p KIX (amino acids 1-100): residues 1-100 of P19659
Gal11p KIX domain (S. cerevisiae): residues 6-90 of P19659

Columns and labels:
[1] = biological target: human ARC105/MED15 KIX domain (human) (UniProt Q96RN5); assay: NMR titration
[2] = biological target: Gal11p KIX domain (S. cerevisiae) (S. cerevisiae) (UniProt P19659); assay: NMR chemical shift analysis
[3] = biological target: Gal11p KIX domain (S. cerevisiae) (S. cerevisiae) (UniProt P19659); assay: mapping studies (data not shown)
[4] = biological target: GST-Gal11p KIX (amino acids 1-100) (S. cerevisiae) (UniProt P19659); assay: GST pulldown
[5] = biological target: GST-Gal11p KIX (amino acids 1-100) (S. cerevisiae) (UniProt P19659); assay: GST pulldown, anti-Myc immunoblot
[6] = biological target: Gal11p-Flag2 (C-terminal Flag-tagged full-length S. cerevisiae Gal11p) (S. cerevisiae) (UniProt P19659); assay: co-immunoprecipitation
[7] = biological target: Gal11p-Flag2 (C-terminal Flag-tagged full-length S. cerevisiae Gal11p) (S. cerevisiae) (UniProt P19659); assay: co-immunoprecipitation, anti-Flag IP, anti-Myc blot

Pdr1pAD-34 (C-terminal 34 amino acids of the S. cerevisiae Pdr1p activation domain) (from UniProt P12383 1035-1068) (peptide)
binding [1]: binds | binding [2]: binds

Pdr1pAD (C-terminal Pdr1p sequences containing the activation domain) (from UniProt P12383 879-1068)
binding [3]: binds

B1: Myc6-Pdr1p (N-terminal Myc-tagged full-length wild-type S. cerevisiae Pdr1p) (protein)
chain: MRGLTPKNGVHIETGPDTESSADSSNFSTGFSGKIRKPRSKVSKACDNCRKRKIKCNGKFPCASCEIYSCECTFSTRQGGARIKNLHKTSLEGTTVQVKEETDSSSTSFSNPQRCTDGPCAVEQPTKFFENFKLGGRSSGDNSGSDGKNDDDVNRNGFYEDDSESQATLTSLQTTLKNLKEMAHLGTHVTSAIESIELQISDLLKRWEPKVRTKELATTKFYPNKSIETQLMKNKYCDVVHLTRYAAWSNNKKDQDTSSQPLIDEIFGLYSPFQFLSLQGIGKCFQNYRSKSKCEIFPRTAKETIYIMLRFFDVCFHHINQGCVSIANPLENYLQKMNLLPSTPSSISSAGSPNTAHTKSHVALVINHLPQPFVRNITGISNSELLSEMNNDISMFGILLKMLDMHKNSYQNFLMEITSNPSVAKNTQSIDVLQEFIHYCQAGEALIALCYSYYNSTLYNYVDFTCDITHLEQLLYFLDLLFWLSEIYGFEKVLNVAVHFVSRVGLSRWEFYVGLDENFAERRRNLWWKAFYFEKTLASKLGYPSNIDDSKINCLLPKNFRDVGFLDNRDFIENVHLVRRSEAFDNMCISDLKYYGELAVLQIVSHFSSSVLFNEKFTSIRNTSKPSVVREKLLFEVLEIFNETEMKYDAIKEQTGKLFDIAFSKDSTELKVSREDKIMASKFVLFYEHHFCRMVNESDNIVARLCVHRRPSILIENLKIYLHKIYKSWTDMNKILLDFDNDYSVYRSFAHYSISCIILVSQAFSVAEFIKVNDVVNMIRVFKRFLDIKIFSENETNEHVFNSQSFKDYTRAFSFLTIVTRIMLLAYGESSSTNLDVISKYIDENAPDLKGIIELVLDTNSCAYRFLLEPVQKSGFHLTVSQMLKNRKFQEPLMSNEDNKQMKHNSGKNLNPDLPSLKTGTSCLLNGIESPQLPFNGRSAPSPVRNNSLPEFAQLPSFRSLSVSDMINPDYAQPTNGQNNTQVQSNKPINAQQQIPTSVQVPFMNTNEINNNNNNNNNNKNNINNINNNNSNNFSATSFNLGTLDEFVNNGDLEDLYSILWSDVYPDS
binding [4]: binds | binding [5]: binds | binding [6]: binds | binding [7]: binds
